{
  "source": "PubChem BioAssay AID540276",
  "about": "(National Center for Advancing Translational Sciences (NCATS), 2011)",
  "note": "Several values for one entry are separate records, joined by “and”; a condition that tells them apart may be missing. Identical values can stand only once. Among all 300,000 compounds or so, about 5,400 (1.8%) were called active. This list was built around the results that the source calls inconclusive (neither active nor inactive); the mix of calls is not that of the screen. Calls come from the whole dose curve; tested in HEK293 cells. Where the call is inconclusive, the potency comes from a doubtful curve fit. % is set by controls: 0 for no effect and ±100 for the full control effect; potency is the fitted concentration of half-maximal effect.",
  "data": [
    {"experiment": "qHTS for inhibitors of binding or entry into cells for Marburg Virus", "conditions": "Marburg virus pseudotyped entry inhibition, cell reporter; activity change, negative = inhibition: at 37.8 µM (top of the series) unless noted", "values": [
      {"smiles": "CC(C)(C)c1ccc(C(=O)N/N=C/c2ccc(OCCCF)cc2)cc1", "Potency": "inconclusive: 35.5 µM [activator, single point]"},
      {"smiles": "NS(=O)(=O)c1ccc(CCNC(=O)C2CCN(S(=O)(=O)c3ccc(Br)s3)CC2)cc1", "Potency": "inconclusive: 5.62 µM [activator, single point]"},
      {"smiles": "Cc1ccc2nc(-c3cccs3)oc(=O)c2c1", "Potency": "inactive"},
      {"smiles": "Cc1sc2ncnc(N3CCC(C(=O)NNC(=O)c4ccc(Cl)cc4)CC3)c2c1C", "Potency": "inactive"},
      {"smiles": "c1ccc2c(N3CCCC3)nc(-c3ccncc3)nc2c1", "Potency": "inconclusive: 14.1 µM [inhibitor, single point]"},
      {"smiles": "O=C(C1CCCN(S(=O)(=O)c2ccc(F)cc2)C1)N1CCCCC1", "note": "(centres undefined)", "Potency": "inconclusive: 4.47 µM [inhibitor, partial curve, poor fit]"},
      {"smiles": "COc1cccc2cc(-c3nc4ccccc4[nH]3)c(=O)oc12", "Potency": "inconclusive: 7.08 µM [inhibitor, partial curve, poor fit]"},
      {"smiles": "COc1ccc(/C=C(\\NC(=O)c2cccs2)C(=O)NN)cc1OC", "Potency": "inconclusive: 0.1 µM [activator, full curve, poor fit]"},
      {"smiles": "COc1ccc(-c2noc(CSc3nnc(C)n3-c3ccc(C)c(C)c3)n2)c(OC)c1", "Potency": "inconclusive: 35.5 µM [inhibitor, single point]"},
      {"smiles": "Cc1cccc(CSc2ccc(-c3cccs3)nn2)c1", "Potency": "inconclusive: 22.4 µM [activator, single point]"},
      {"smiles": "CC1=CC(=C2N=C(c3ccccc3)OC2=O)C=C(C)O1", "Potency": "inconclusive: 32.6 µM [inhibitor, single point]"},
      {"smiles": "COc1cc(/C=c2/sc3nc(-c4ccccc4)c(-c4ccccc4)n3c2=O)cc(OC)c1OC", "Potency": "inconclusive: 6.31 µM [activator, single point]"},
      {"smiles": "COCc1cc(C)nc(OCC(=O)N/N=C/c2ccccc2O)c1C#N", "Potency": "inconclusive: 35.5 µM [inhibitor, single point]"},
      {"smiles": "O=C(NC(=O)N1CCN(c2ccccc2)CC1)c1ccc(Cl)cc1", "Potency": "inactive"},
      {"smiles": "O=C(NCc1ccccc1Cl)c1nnc(Cc2ccc(Cl)cc2)o1", "Potency": "inactive"},
      {"smiles": "CC(=O)Nc1ccc(NC(=O)c2cc(-c3ccc4c(c3)OCCO4)on2)cc1", "activity change, negative = inhibition": "inconclusive: 53.2% [activator] [at 46.1 µM]"},
      {"smiles": "C#CCNC(=O)/C=C/c1ccc(C)cc1", "Potency": "inconclusive: 1.3 µM [activator, partial curve]"},
      {"smiles": "O=C1C(=O)c2c(ccc3ccccc23)-c2ccccc21", "Potency": "inconclusive: 2.82 µM [inhibitor, full curve, poor fit]"},
      {"smiles": "CC1CNCCN1S(=O)(=O)c1cccc2cnccc12", "note": "(centres undefined)", "Potency": "inconclusive: 10 µM [inhibitor, partial curve, poor fit] and inconclusive: 9.2 µM [inhibitor, partial curve]"},
      {"smiles": "COC(=O)CNC(c1ccccc1)c1cc(Br)ccc1NS(=O)(=O)c1ccc(C)cc1", "note": "(centres undefined)", "Potency": "inconclusive: 2.82 µM [inhibitor, partial curve]"},
      {"smiles": "O=C(c1ccccc1)[C@@H]1[C@@H](C(=O)c2ccc(F)cc2)[C@@]2(C(=O)Nc3ccccc32)[C@H]2c3ccccc3C=CN12", "Potency": "inactive"},
      {"smiles": "O=C(Nc1nnc(C2CCCCC2)s1)c1ccc(Br)s1", "Potency": "inconclusive: 5.8 µM [activator, partial curve, poor fit]"},
      {"smiles": "COc1c(C)cc(C(=O)C2CCCN(C(=O)c3ccoc3)C2)cc1C", "note": "(centres undefined)", "Potency": "inactive"},
      {"smiles": "CCN(CC)CCOCCOc1cc(C)c(Cl)c(C)c1", "Potency": "inconclusive: 14.6 µM [inhibitor, partial curve, poor fit]"},
      {"smiles": "CNC(=O)CSc1nc2c(c(=O)n(C)c(=O)n2C)n1Cc1ccc(C)cc1", "Potency": "inactive"},
      {"smiles": "COc1ccc(CNCC(O)(c2ccc(Cl)cc2)c2ccc(Cl)cc2)cc1", "Potency": "inconclusive: 29.1 µM [inhibitor, single point]"},
      {"smiles": "CCCC1=Nc2cc(C(=O)NCCOC)ccc2Sc2ccccc21", "Potency": "inconclusive: 0.891 µM [inhibitor, full curve, poor fit]"},
      {"smiles": "N#Cc1c(NC(=S)NC(=O)Cc2cccs2)sc2c1CCCCC2", "Potency": "inactive"},
      {"smiles": "CNCCC(Oc1ccccc1OC)c1ccccc1", "note": "(centres undefined)", "Potency": "active: 18.3 µM and active: 11.2 µM"},
      {"smiles": "COCCC1CCCCN1C(=O)c1ccc(OC)c(OC2CCN(C(C)=O)CC2)c1", "note": "(centres undefined)", "Potency": "inactive"},
      {"smiles": "COCc1nnc(NC(=O)CCSc2ccccc2)s1", "Potency": "inconclusive: 0.082 µM [inhibitor, full curve, poor fit]"},
      {"smiles": "O=S(=O)(NCc1cccnc1)c1ccc(Cl)c2ccccc12", "Potency": "inconclusive: 28.2 µM [inhibitor, partial curve, poor fit]"},
      {"smiles": "Cc1c(Cl)cccc1NC(=O)Nc1ccc2snnc2c1", "Potency": "inconclusive: 35.5 µM [inhibitor, single point]"},
      {"smiles": "C/C(=N\\NC(=S)NC(C)C)c1ccc(Cl)s1", "Potency": "inactive"},
      {"smiles": "CCCCn1c(N)c(N(CCOC)C(=O)CSc2nnc(-c3ccc(C(C)(C)C)cc3)n2N)c(=O)[nH]c1=O", "activity change, negative = inhibition": "inconclusive: 32.5% [activator]"},
      {"smiles": "CCCSc1nnc2c(n1)OC(c1cccs1)Nc1ccc(Br)cc1-2", "note": "(centres undefined)", "Potency": "inactive"},
      {"smiles": "CCCC(=O)Nc1ccc2nc(SCC(=O)Nc3ccc(N4CCOCC4)c(Cl)c3)sc2c1", "Potency": "inconclusive: 28.2 µM [inhibitor, single point]"},
      {"smiles": "COc1ccc(-c2nc(CN3CCC(c4ccccc4)CC3)c(C)o2)cc1OC", "Potency": "inconclusive: 0.562 µM [inhibitor, full curve, poor fit]"},
      {"smiles": "O=C(CSc1cn(CCNC(=O)c2cccs2)c2ccccc12)NC1CCCCC1", "Potency": "inactive"},
      {"smiles": "CCc1ccc(N(C(=O)c2csnn2)C(C(=O)NC2CCCC2)c2cccnc2)cc1", "note": "(centres undefined)", "Potency": "inconclusive: 6.31 µM [inhibitor, single point]"},
      {"smiles": "COc1ccc(C(O)(CCc2ccccc2)CCN2CCCCC2)cc1", "note": "(centres undefined)", "Potency": "inconclusive: 11.2 µM [inhibitor, partial curve, poor fit]"},
      {"smiles": "C=CCn1c(C)cc(C(=O)COC(=O)C2CC(=O)N(CCc3ccc(OC)c(OC)c3)C2)c1C", "note": "(centres undefined)", "Potency": "inconclusive: 35.5 µM [activator, single point]"},
      {"smiles": "Clc1ccccc1Cn1nnc(-c2ccccc2)n1", "Potency": "inconclusive: 31.6 µM [activator, single point]"},
      {"smiles": "C=CCNc1ncnc2c1[nH]c1ccc(C)cc12", "Potency": "inconclusive: 18.3 µM [inhibitor, single point]"},
      {"smiles": "CCOc1ccc(Cn2c3ccc(OC)cc3c3nc4ccccc4nc32)cc1", "Potency": "inactive"},
      {"smiles": "CC1(OC(=O)C2CCCC2)C(=O)C=C2C=C3CCCN3C=C2C1=O", "note": "(centres undefined)", "Potency": "inactive"},
      {"smiles": "COC(=O)C(c1ccc(OC)c(OC)c1)C1c2ccccc2C=C(C)N1C(=O)OC", "note": "(centres undefined)", "Potency": "inactive"},
      {"smiles": "C[N+](C)(C)CC(=O)Nc1ccc(Cl)cc1C(=O)c1ccccc1", "Potency": "inconclusive: 2.82 µM [inhibitor, single point]"},
      {"smiles": "CCN(CC)C(=O)c1ccc(COc2ccccc2Cl)o1", "Potency": "inconclusive: 1.26 µM [inhibitor, single point]"},
      {"smiles": "CN(C)c1ccc(/C=N/c2cc(-c3ccccc3)nn2-c2ccccc2)cc1", "Potency": "inactive"},
      {"smiles": "O=C(CNC(=O)c1ccco1)NNC(=O)c1n[nH]c(=O)c2ccccc12", "Potency": "inactive"},
      {"smiles": "Cc1cc(-c2ccccc2)nc(N(C)NC(=O)C2CC2)c1S(C)(=O)=O", "Potency": "inactive"},
      {"smiles": "Cc1ccc(Nc2nc3ccccc3o2)cc1F", "Potency": "inconclusive: 35.5 µM [inhibitor, single point]"},
      {"smiles": "O=C(/C(=C/O)N=Nc1ccccc1)c1ccc(Cl)cc1", "Potency": "inconclusive: 35.5 µM [inhibitor, single point]"},
      {"smiles": "CC(C)CO/N=C1/C[C@@H](O)[C@@H](O)[C@@H]2[C@@H]3C(=O)N(C4CCCCC4)C(=O)[C@H]3CC[C@H]12", "Potency": "inactive"},
      {"smiles": "CCCCn1nc(C(=O)Oc2ccc3c(C)cc(=O)oc3c2)c2ccccc2c1=O", "Potency": "inconclusive: 5.62 µM [inhibitor, single point]"},
      {"smiles": "COc1ccc(NS(=O)(=O)c2cc(NC(=O)CCc3ccccc3)ccc2N2CCOCC2)cc1", "Potency": "inconclusive: 5.62 µM [inhibitor, full curve]"},
      {"smiles": "CCOc1ccc(NS(=O)(=O)c2cc3c4c(c2)CCN4C(=O)CC3)cc1", "Potency": "inconclusive: 35.5 µM [inhibitor, single point]"},
      {"smiles": "CC(=O)N1CCC(N2CCN(c3ccccc3F)CC2)CC1", "Potency": "inactive"},
      {"smiles": "CCc1ccc(C(=O)NNc2ccc(C)c(Cl)c2)cc1", "Potency": "inconclusive: 7.94 µM [inhibitor, partial curve]"},
      {"smiles": "CC(=O)Nc1ccc(S(=O)(=O)Nc2nnc(C(C)(C)C)s2)cc1", "Potency": "inactive"},
      {"smiles": "CCOc1ccc(S(=O)(=O)NCCC(=O)OC(C)C(=O)N2CCc3ccccc32)cc1", "note": "(centres undefined)", "Potency": "inconclusive: 0.92 µM [inhibitor, partial curve, poor fit]"},
      {"smiles": "O=C(NCCc1c[nH]c2ccccc12)[C@@H]1C[C@H]1[C@@H](NP(=O)(c1ccccc1)c1ccccc1)c1ccccc1", "Potency": "inconclusive: 25.9 µM [inhibitor, single point]"},
      {"smiles": "CCc1cccc(C)c1NC(=O)COC(=O)Cc1ccsc1", "Potency": "inconclusive: 3.26 µM [activator, partial curve, poor fit]"},
      {"smiles": "Cc1ccc(NC(=O)c2ccc([N+](=O)[O-])cc2Cl)nc1", "Potency": "inconclusive: 7.08 µM [inhibitor, partial curve, poor fit]"},
      {"smiles": "CCn1c(SCC(=O)N2CCOCC2)nc2c(c1=O)SC(C)C2", "note": "(centres undefined)", "Potency": "inactive"},
      {"smiles": "C=CCNC(=O)c1ccc2nc(-c3ccccc3)c(-c3ccccc3)nc2c1", "Potency": "inactive"},
      {"smiles": "Cc1ccc(S(=O)(=O)N(C)CC(=O)O/N=C(\\N)c2cccc(Br)c2)cc1", "Potency": "inconclusive: 12.6 µM [inhibitor, partial curve, poor fit]"},
      {"smiles": "Cc1ccc2nc(SCC(=O)NCc3ccco3)c(C#N)cc2c1", "Potency": "inactive"}
    ]}
  ]
}
